Earlier results in US11761043B2, “Machine assay and analysis for selecting antihypertensive drugs” (Geneticure Inc., priority 2014, dated 2023).

The chains behind the UniProt entries cited, without tags or fusion partners.
UniProt P10635, whole entry: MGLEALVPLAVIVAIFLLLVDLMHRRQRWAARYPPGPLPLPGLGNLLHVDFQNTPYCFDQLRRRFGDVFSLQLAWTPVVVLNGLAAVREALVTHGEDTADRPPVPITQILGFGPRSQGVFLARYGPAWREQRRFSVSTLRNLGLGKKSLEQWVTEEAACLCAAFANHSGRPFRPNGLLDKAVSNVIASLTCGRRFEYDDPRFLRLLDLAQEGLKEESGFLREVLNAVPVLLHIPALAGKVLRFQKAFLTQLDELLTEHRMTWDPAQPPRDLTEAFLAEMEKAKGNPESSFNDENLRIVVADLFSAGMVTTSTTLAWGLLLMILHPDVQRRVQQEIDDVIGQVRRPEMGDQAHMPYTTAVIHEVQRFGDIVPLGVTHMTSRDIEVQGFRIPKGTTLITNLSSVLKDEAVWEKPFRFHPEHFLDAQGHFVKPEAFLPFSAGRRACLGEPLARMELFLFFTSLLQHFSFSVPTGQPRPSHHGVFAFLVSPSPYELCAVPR

Biological target: CYP2D6 (Homo sapiens, UniProt P10635)
Conditions: in vivo

Compound: CC(C)NCC(O)COc1ccc(CC(N)=O)cc1 (stereo not shown) [atenolol]
- requirement of CYP2D6 for metabolism: do not require CYP2D6 for their metabolism
